Assay results as given in publication doi:10.1101/2020.12.08.415711.
Read-outs that look alike come from different tables or passages of the source. No constants are given. Whether binding was seen depends on the method and setting. Binding seen in cells or lysates may run through a third protein. Some binding calls cover weakened binding; strength is not graded here. Values belong to the molecule of their own block, whether it stands above or below them.

Sequences of proteins named here, by UniProt entry; tags and fusion partners are left off.
UniProt Q9SXA1: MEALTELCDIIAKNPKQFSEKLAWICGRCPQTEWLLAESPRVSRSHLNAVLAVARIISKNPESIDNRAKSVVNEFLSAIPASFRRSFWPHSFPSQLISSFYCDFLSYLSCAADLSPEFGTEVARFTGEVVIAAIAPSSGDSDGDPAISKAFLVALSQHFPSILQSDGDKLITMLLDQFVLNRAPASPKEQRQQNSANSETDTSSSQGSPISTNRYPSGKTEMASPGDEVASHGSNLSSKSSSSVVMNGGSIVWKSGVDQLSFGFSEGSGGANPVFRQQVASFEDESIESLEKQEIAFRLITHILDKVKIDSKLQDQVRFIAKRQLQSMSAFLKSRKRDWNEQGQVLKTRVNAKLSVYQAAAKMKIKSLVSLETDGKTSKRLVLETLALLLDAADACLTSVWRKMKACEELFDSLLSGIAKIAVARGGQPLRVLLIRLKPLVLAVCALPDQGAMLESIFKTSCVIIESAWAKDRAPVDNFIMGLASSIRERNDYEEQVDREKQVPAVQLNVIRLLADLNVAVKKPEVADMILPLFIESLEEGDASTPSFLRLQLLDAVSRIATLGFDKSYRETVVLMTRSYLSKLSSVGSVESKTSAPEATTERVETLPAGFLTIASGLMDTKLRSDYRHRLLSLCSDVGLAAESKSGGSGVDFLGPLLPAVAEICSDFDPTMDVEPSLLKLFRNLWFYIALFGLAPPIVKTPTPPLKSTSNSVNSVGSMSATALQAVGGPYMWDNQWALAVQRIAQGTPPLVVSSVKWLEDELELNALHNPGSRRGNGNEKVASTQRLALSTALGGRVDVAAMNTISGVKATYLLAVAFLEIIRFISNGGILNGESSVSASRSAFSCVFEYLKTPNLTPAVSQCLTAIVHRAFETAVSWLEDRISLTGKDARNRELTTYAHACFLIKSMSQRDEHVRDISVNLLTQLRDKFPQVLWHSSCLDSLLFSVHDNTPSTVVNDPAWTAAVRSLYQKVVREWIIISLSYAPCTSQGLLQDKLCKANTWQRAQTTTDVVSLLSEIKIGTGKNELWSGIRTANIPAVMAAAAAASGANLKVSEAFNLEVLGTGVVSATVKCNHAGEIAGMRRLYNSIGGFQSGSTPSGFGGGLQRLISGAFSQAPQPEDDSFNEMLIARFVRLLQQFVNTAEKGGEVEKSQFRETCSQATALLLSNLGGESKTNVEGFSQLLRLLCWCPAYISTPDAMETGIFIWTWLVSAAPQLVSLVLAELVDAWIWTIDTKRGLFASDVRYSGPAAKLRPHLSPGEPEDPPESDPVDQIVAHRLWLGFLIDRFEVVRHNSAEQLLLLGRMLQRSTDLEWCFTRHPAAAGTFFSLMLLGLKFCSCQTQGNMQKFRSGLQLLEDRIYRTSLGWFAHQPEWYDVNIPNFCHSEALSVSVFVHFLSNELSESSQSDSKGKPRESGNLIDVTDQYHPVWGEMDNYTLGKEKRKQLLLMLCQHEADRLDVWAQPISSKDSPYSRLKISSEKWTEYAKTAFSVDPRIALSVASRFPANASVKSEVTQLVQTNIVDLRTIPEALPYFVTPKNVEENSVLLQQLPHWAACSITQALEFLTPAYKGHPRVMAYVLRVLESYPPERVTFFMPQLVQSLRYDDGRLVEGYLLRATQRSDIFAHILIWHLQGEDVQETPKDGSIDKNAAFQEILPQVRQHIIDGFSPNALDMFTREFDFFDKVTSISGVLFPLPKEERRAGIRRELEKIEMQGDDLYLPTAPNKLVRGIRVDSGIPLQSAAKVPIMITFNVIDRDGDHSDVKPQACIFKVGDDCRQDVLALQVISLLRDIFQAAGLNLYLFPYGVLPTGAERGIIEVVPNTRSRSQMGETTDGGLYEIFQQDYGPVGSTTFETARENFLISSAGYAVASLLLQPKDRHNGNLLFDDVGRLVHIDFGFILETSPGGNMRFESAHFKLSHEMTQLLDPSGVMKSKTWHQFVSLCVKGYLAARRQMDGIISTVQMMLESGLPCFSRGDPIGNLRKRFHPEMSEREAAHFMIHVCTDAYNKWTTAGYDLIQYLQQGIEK

Key:
Assay in all cases: co-IP
[1] = target: T1, Lti6b-mCITRINE (UniProt Q9ZNS6)
T1 sequence: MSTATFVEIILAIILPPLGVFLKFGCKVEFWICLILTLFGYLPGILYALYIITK

[2] = target: T2, NPGR2-mCITRINE (Arabidopsis thaliana) (UniProt Q66GN3)
T2 sequence: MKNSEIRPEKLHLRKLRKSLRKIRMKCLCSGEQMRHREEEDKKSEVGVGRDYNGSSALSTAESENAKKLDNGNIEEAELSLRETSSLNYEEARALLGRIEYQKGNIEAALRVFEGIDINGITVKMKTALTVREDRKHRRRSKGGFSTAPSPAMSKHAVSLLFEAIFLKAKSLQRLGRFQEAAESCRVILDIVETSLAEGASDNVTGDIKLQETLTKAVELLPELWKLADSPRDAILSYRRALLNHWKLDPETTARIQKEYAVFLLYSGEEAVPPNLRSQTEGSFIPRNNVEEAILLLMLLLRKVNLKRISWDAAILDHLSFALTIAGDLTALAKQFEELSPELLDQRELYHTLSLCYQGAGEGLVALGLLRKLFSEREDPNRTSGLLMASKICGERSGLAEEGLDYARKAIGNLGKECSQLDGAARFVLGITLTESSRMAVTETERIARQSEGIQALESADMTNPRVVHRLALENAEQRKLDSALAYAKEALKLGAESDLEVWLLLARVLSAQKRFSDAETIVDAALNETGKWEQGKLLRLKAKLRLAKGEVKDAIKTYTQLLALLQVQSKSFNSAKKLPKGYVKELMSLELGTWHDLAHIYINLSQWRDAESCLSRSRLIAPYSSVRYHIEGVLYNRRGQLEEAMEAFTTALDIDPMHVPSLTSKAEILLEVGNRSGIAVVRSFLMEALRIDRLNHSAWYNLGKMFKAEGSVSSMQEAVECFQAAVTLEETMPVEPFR

[3] = target: T1, Lti6b-mCITRINE; remark: listed apart in the source

- binding [1]: no binding
- binding [2]: binds
Molecule: PI4Kα1, endogenous (from UniProt Q9SXA1 1-2028) (enzyme)

- binding [3]: no binding
B1: NPGR2, endogenous (protein, UniProt Q66GN3 1-739)
chain: T2 sequence
